{"source": "PubChem BioAssay AID1259424 (University of Nebraska Medical Center, 2018)", "screen": "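Seek colon cancer survival genes behaving like KSR1, using a six-gene signature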 (primary screen)", "cell system": "human HCT116 colon cancer cells", "reagent": "siRNA pool against human genes, 50 nM", "detection": "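Log2 levels of six mRNAs (branched-DNA multiplex), adjusted by two reference genes and the non-targeting median, then scored against the average KSR1 knockdown pattern as Pearson r and euclidean distance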", "direction": "mean correlation with KSR1 profile: higher = expression change more like KSR1 knockdown; mean distance from KSR1 profile: higher = expression change less like KSR1 knockdown", "note": "This is an unselected part of about 14,000 reagents tested. 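Higher correlation or smaller distance means closer resemblance to KSR1 loss; control wells, including KSR1 knockdowns, recur on many plates.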 Not all columns of the deposit are shown. Reagent sequences are not shown. The record does not give: the time to read-out."}
{"target gene": "PALS2 (protein associated with LIN7 2, MAGUK p55 family member)", "mean correlation with KSR1 profile": 0.31, "mean distance from KSR1 profile": 1.09}
{"target gene": "RAB7A (RAB7A, member RAS oncogene family)", "mean correlation with KSR1 profile": -0.451, "mean distance from KSR1 profile": 1.87}
{"target gene": "PRDX4 (peroxiredoxin 4)", "mean correlation with KSR1 profile": 0.132, "mean distance from KSR1 profile": 1.56}
{"target gene": "TAFA5 (TAFA chemokine like family member 5)", "mean correlation with KSR1 profile": -0.377, "mean distance from KSR1 profile": 2.07}
{"target gene": "KIF4A (kinesin family member 4A)", "mean correlation with KSR1 profile": -0.335, "mean distance from KSR1 profile": 1.58}
{"target gene": "LRRC41 (leucine rich repeat containing 41)", "mean correlation with KSR1 profile": 0.271, "mean distance from KSR1 profile": 1.24}
{"target gene": "EXO5 (exonuclease 5)", "mean correlation with KSR1 profile": -0.291, "mean distance from KSR1 profile": 2.37}
{"target gene": "ASIP (agouti signaling protein)", "mean correlation with KSR1 profile": -0.73, "mean distance from KSR1 profile": 2.39}
{"target gene": "ZNF423 (zinc finger protein 423)", "mean correlation with KSR1 profile": -0.411, "mean distance from KSR1 profile": 2.49}
{"target gene": "CCDC51 (coiled-coil domain containing 51)", "mean correlation with KSR1 profile": -0.0519, "mean distance from KSR1 profile": 2.02}
{"target gene": "TMEM87B (transmembrane protein 87B)", "mean correlation with KSR1 profile": 0.509, "mean distance from KSR1 profile": 1.86}
{"target gene": "INHBE (inhibin subunit beta E)", "mean correlation with KSR1 profile": 0.493, "mean distance from KSR1 profile": 1.96}
{"target gene": "ETS2 (ETS proto-oncogene 2, transcription factor)", "mean correlation with KSR1 profile": 0.0709, "mean distance from KSR1 profile": 2.93}
{"target gene": "SORCS2 (sortilin related VPS10 domain containing receptor 2)", "mean correlation with KSR1 profile": -0.018, "mean distance from KSR1 profile": 2.37}
{"target gene": "HSPB1 (heat shock protein family B (small) member 1)", "mean correlation with KSR1 profile": -0.25, "mean distance from KSR1 profile": 1.47}
{"target gene": "SLC4A1", "mean correlation with KSR1 profile": -0.0755, "mean distance from KSR1 profile": 1.7}
{"target gene": "ARAF (A-Raf proto-oncogene, serine/threonine kinase)", "mean correlation with KSR1 profile": 0.316, "mean distance from KSR1 profile": 2.19}
{"target gene": "NPEPPS (aminopeptidase puromycin sensitive)", "mean correlation with KSR1 profile": 0.636, "mean distance from KSR1 profile": 1.52}
{"target gene": "AHR (aryl hydrocarbon receptor)", "mean correlation with KSR1 profile": -0.69, "mean distance from KSR1 profile": 1.72}

2 entries from above, ordered by “mean distance from KSR1 profile”, lowest first:
{"target gene": "SORCS2 (sortilin related VPS10 domain containing receptor 2)", "mean correlation with KSR1 profile": -0.018, "mean distance from KSR1 profile": 2.37}
{"target gene": "ETS2 (ETS proto-oncogene 2, transcription factor)", "mean correlation with KSR1 profile": 0.0709, "mean distance from KSR1 profile": 2.93}
